Experiment [1] has as its target β-catenin, mouse lung (mouse (endogenous in lung tissue)) (UniProt Q02248). Put plainly: co-IP; lung tissue lysates of control or sham-operated mice and of mice after LPS injection or CLP surgery (different times); precleared with protein A/G, anti-β-catenin (1:100) overnight at 4°C, protein A/G, six washes, Western blot for VE-cadherin. In general terms: A western blot detects proteins with antibodies after separation by electrophoresis.

Experiment [2] addresses T1, β-catenin, HPMECs (human (endogenous in HPMECs)), P35222.
T1 chain: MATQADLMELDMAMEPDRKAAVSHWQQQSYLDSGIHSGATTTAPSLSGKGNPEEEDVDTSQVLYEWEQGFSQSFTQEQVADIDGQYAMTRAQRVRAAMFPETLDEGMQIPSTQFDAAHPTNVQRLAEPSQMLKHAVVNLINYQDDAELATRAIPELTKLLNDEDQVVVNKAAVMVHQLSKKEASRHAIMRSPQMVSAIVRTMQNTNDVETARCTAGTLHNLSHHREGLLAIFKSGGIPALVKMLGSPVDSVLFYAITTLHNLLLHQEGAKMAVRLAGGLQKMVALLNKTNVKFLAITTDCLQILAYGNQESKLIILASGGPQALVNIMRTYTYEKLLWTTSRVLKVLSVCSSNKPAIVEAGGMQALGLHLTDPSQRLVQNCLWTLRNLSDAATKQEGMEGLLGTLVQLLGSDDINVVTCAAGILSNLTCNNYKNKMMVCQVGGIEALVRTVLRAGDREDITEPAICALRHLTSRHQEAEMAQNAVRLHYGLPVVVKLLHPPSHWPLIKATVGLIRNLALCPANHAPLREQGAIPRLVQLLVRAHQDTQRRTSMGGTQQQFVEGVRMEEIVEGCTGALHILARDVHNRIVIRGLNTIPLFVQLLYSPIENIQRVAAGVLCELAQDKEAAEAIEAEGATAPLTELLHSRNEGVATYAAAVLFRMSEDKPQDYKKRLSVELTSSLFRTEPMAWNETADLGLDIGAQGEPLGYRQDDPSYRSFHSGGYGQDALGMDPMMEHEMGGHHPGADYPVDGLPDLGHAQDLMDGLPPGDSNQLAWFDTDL
Put plainly: proximity ligation; Duolink in situ PLA on fixed HPMECs with anti-VE-cadherin and anti-β-catenin antibodies; control, 24 h LPS, Sirt3 shRNA or Sirt3 over; confocal microscopy. The conditions noted are these: remark: other sources report otherwise.

The target of experiment [3] is T1, β-catenin, HPMECs (human (endogenous in …)). Put plainly: co-IP; HPMEC lysates, with or without LPS, after transfection with scramble, Sirt3 shRNA, vector or Sirt3 over; precleared with protein A/G, anti-β-catenin (1:100) overnight at 4°C, protein A/G, six washes, Western blot for VE-cadherin. The note with it: remark: other sources report otherwise.

Results are given in words; binding and its absence hold for the method and conditions named. In cells and extracts the contact can be indirect. Some entries that bind do so weakly or less than the wild type.

The values that follow come from article PMC8500765.

B1: vascular endothelial cadherin (VE-cadherin), mouse lung (protein, UniProt P55284 46-784)
chain: DWIWNQMHIDEEKNESLPHYVGKIKSNVNRQNAKYVLQGEFAGKIFGVDANTGNVLAYERLDREKVSEYFLTALIVDKNTNKNLEQPSSFTVKVHDINDNWPVFSHQVFNASVPEMSAIGTSVIRVTAVDADDPTVAGHATVLYQIVKGNEYFSIDNSGLIFTKIKNLDREKQAEYKIVVETQDALGLRGESGTATVMIRLEDINDNFPVFTQSTYTFSVPEDIRVGKPLGFLTVVDPDEPQNRMTKYSIMQGEYRDTFTIETDPKRNEGIIKPTKSLDYEVIQQYTFYIEATDPTIRYEYLSSTSGKNKAMVTINVLDVDEPPVFQRHFYHFKLPENQKKPLIGTVVAKDPDKAQRSIGYSIRKTSDRGQFFRITKQGNIYNEKELDRETYAWYNLTVEANELDSRGNPVGKESIVQVYIEVLDENDNPPEFAQPYEPKVCENAAQGKLVVQISATDKDVVPVNPKFKFALKNEDSNFTLINNHDNTANITVKYGQFNREHAKFHYLPVLISDNGVPSLTGTSTLTVGVCKCNEQGEFTFCEEMAAQAGVSIQALVAIFLCILTITVITLLIILRRRIRKQAHAHSKSALEIHEQLVTYDEEGGGEMDTTSYDVSVLNSVRGGSTKPLRSTMDARPAVYTQVQKPPRLAPGLHGGPREMATMIDVKKEEADNDGGGPPYDTLHIYGYEGAESIAESLSSLSTNSSDSDIDYDFLNDWGPRFKMLAELYGSDPQEELII
For B1, the binding entry in experiment [1] was “binds”.

B2: vascular endothelial cadherin (VE-cadherin), HPMECs, P33151 48-784 (protein)
chain: DWIWNQMHIDEEKNTSLPHHVGKIKSSVSRKNAKYLLKGEYVGKVFRVDAETGDVFAIERLDRENISEYHLTAVIVDKDTGENLETPSSFTIKVHDVNDNWPVFTHRLFNASVPESSAVGTSVISVTAVDADDPTVGDHASVMYQILKGKEYFAIDNSGRIITITKSLDREKQARYEIVVEARDAQGLRGDSGTATVLVTLQDINDNFPFFTQTKYTFVVPEDTRVGTSVGSLFVEDPDEPQNRMTKYSILRGDYQDAFTIETNPAHNEGIIKPMKPLDYEYIQQYSFIVEATDPTIDLRYMSPPAGNRAQVIINITDVDEPPIFQQPFYHFQLKENQKKPLIGTVLAMDPDAARHSIGYSIRRTSDKGQFFRVTKKGDIYNEKELDREVYPWYNLTVEAKELDSTGTPTGKESIVQVHIEVLDENDNAPEFAKPYQPKVCENAVHGQLVLQISAIDKDITPRNVKFKFILNTENNFTLTDNHDNTANITVKYGQFDREHTKVHFLPVVISDNGMPSRTGTSTLTVAVCKCNEQGEFTFCEDMAAQVGVSIQAVVAILLCILTITVITLLIFLRRRLRKQARAHGKSVPEIHEQLVTYDEEGGGEMDTTSYDVSVLNSVRRGGAKPPRPALDARPSLYAQVQKPPRHAPGAHGGPGEMAAMIEVKKDEADHDGDGPPYDTLHIYGYEGSESIAESLSSLGTDSSDSDVDYDFLNDWGPRFKMLAELYGSDPREELLY
Turning to B2, the binding entry in experiment [2] and in experiment [3] was “binds” each time.
